# PubChem BioAssay AID1224826 | NIAID – 2016
# Aim: 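Knock-downs that raise or lower Tnf reporter signal after endotoxin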 (primary screen)
# Cells: RAW264.7 G9 macrophages from mouse bearing reporters for p65 (GFP) and the Tnf promoter (mCherry)
# Reagents: siRNA pool against mouse genes, 100 nM
# Timing: 16 h of LPS stimulation, after 2 days of siRNA transfection
# Treatment: bacterial lipopolysaccharide (Salmonella minnesota R595), 10 ng/ml
# Read-out: 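Nuclear mCherry signal of the Tnf promoter reporter measured by imaging after background removal, scaled to each plate median and turned into robust z-scores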
# Direction: Tnf reporter robust z-score: higher = stronger Tnf promoter reporter signal after LPS
# Call rule: 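Called active when robust z-score is at most -1.3, matching the median of the Tlr4 knock-down control, or over 3; control wells and wells with under 50 cells never active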
# Calls: active = Tnf reporter clearly lowered or raised; inactive = no clear change in Tnf reporter
# Shown is one part, drawn at random, of about 17,000 reagents. Of all reagents, about 1,110 (6.6%) are marked active. 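Active means lowered or raised reporter signal; replicate intensities are raw and not normalised per plate.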 Further read-outs or replicates are left out here. No sequences are given here.
Target gene,Tnf reporter robust z-score,fewer than 50 cells in well,outcome
Myg1,-1.33,enough cells in well,active
Asap1,-0.84,enough cells in well,inactive
Dnmt3l,-1.01,enough cells in well,inactive
Smg9,0.92,enough cells in well,inactive
Vpreb3,-0.79,enough cells in well,inactive
Tmem14a,0.31,enough cells in well,inactive
Hibadh,0.99,enough cells in well,inactive
Htr6,-0.64,enough cells in well,inactive
Dlgap2,0.03,enough cells in well,inactive
Cd84,-0.13,enough cells in well,inactive
Chil6,0.24,enough cells in well,inactive
Coa4,1.04,enough cells in well,inactive
Letmd1,1.53,enough cells in well,inactive
Plet1,-0.27,enough cells in well,inactive
Zfp641,-0.86,enough cells in well,inactive
Prr9,-0.09,enough cells in well,inactive
Tmem121,,fewer than 50 cells per well; well left out of calls,inactive
Gsk3b,1.96,enough cells in well,inactive
Dctn3,0.27,enough cells in well,inactive
Nek2,1.6,enough cells in well,inactive
Tango2,1.3,enough cells in well,inactive
Ssna1,,fewer than 50 cells per well; well left out of calls,inactive
Tmem229a,0.53,enough cells in well,inactive
Slc29a1,-0.31,enough cells in well,inactive
Hmmr,-0.11,enough cells in well,inactive
Fsaf1,3.02,enough cells in well,active
Comp,0.94,enough cells in well,inactive
Aldh1l1,0.06,enough cells in well,inactive
Arhgef7,-0.82,enough cells in well,inactive
Plekha8,-0.68,enough cells in well,inactive
Msantd3,1.17,enough cells in well,inactive
Gm16897,,fewer than 50 cells per well; well left out of calls,inactive
Topors,-0.46,enough cells in well,inactive
Or8k40,-0.87,enough cells in well,inactive
Usp28,0.45,enough cells in well,inactive
Itch,0.9,enough cells in well,inactive
Sin3b,-0.33,enough cells in well,inactive
Epb41,0.79,enough cells in well,inactive
Tnnt3,,fewer than 50 cells per well; well left out of calls,inactive
Neurog3,0.04,enough cells in well,inactive
Blnk,0.07,enough cells in well,inactive
Zpr1,1.38,enough cells in well,inactive
Pigf,-0.01,enough cells in well,inactive
Moxd1,1.2,enough cells in well,inactive
Dok3,-0.24,enough cells in well,inactive
Slc38a7,0.34,enough cells in well,inactive
Tas2r115,-0.17,enough cells in well,inactive
Nscme3l,0.92,enough cells in well,inactive
Arhgef19,0.37,enough cells in well,inactive
Tor2a,-0.29,enough cells in well,inactive
Pitx3,0.61,enough cells in well,inactive
Zfp13,0.88,enough cells in well,inactive
Asprv1,,fewer than 50 cells per well; well left out of calls,inactive
Katnal1,2.01,enough cells in well,inactive
Dhh,1.21,enough cells in well,inactive
Mfn2,-1.1,enough cells in well,inactive
Hes6,-0.16,enough cells in well,inactive
Ptgfr,-0.44,enough cells in well,inactive

Hits (from the list above):
Target gene,Tnf reporter robust z-score,fewer than 50 cells in well,outcome
Myg1,-1.33,enough cells in well,active
Fsaf1,3.02,enough cells in well,active
